Measurements published in patent publication US7696233B2, “Method for controlling particular insect pests by applying anthranilamide compounds” (E. I. du Pont de Nemours and Company, priority 2001, dated 2010).
Some entries share one result that the patent states for a list of compounds.

Columns and labels:
Type in all cases: in vivo
[1] = tested on: tobacco budworm (Heliothis virescens); experiment: Test B: control of tobacco budworm, foliar spray on cotton; settings: sprayed at 50 ppm, visually rated after 6 days
[2] = tested on: beet armyworm (Spodoptera exigua); experiment: Test C: control of beet armyworm, foliar spray on corn; settings: sprayed at 50 ppm, visually rated after 6 days
[3] = tested on: fall armyworm (Spodoptera frugiperda); experiment: Test A: control of fall armyworm, foliar spray on corn; settings: sprayed at 50 ppm, visually assessed after 6 days

Measured: feeding damage (excellent levels of plant protection)

CNC(=O)c1cccc(C)c1NC(=O)c1cc(C)nn1-c1ncccc1Cl [Compound 418]
≤ 10%: all assays above

Cc1cc(Cl)cc(C(=O)NC(C)(C)C)c1NC(=O)c1cc(C#N)nn1-c1ncccc1Cl [Compound 420]
≤ 10%: all assays above

CNC(=O)c1cccc(C)c1NC(=O)c1cc(Br)nn1-c1ncccc1Cl [Compound 422]
≤ 10%: all assays above

Cc1cc(Br)cc(C(N)=O)c1NC(=O)c1cc(C(F)(F)F)nn1-c1ncccc1Cl [Compound 424]
≤ 10%: all assays above

Cc1cc(Br)c(NC(=O)c2cc(C(F)(F)F)nn2-c2ncccc2Cl)c(C(=O)NCC#N)c1 [Compound 428]
≤ 10%: all assays above

Cc1cc(Cl)c(NC(=O)c2cc(C(F)(F)F)nn2-c2ncccc2Cl)c(C(=O)NC(C)C)c1 [Compound 431]
≤ 10%: all assays above

Cc1cc(Cl)c(NC(=O)c2cc(C(F)(F)F)nn2-c2ncccc2Cl)c(C(=O)NC(C)(C)C)c1 [Compound 432]
≤ 10%: all assays above

CNC(=O)c1cc(C)cc(Cl)c1NC(=O)c1cc(C(F)(F)F)nn1-c1ncccc1Cl [Compound 433]
≤ 10%: all assays above

Cc1cc(Br)cc(C(N)=O)c1NC(=O)c1cc(Br)nn1-c1ncccc1Cl [Compound 434]
≤ 10%: all assays above

NC(=O)c1cc(Br)cc(Cl)c1NC(=O)c1cc(C(F)(F)F)nn1-c1ncccc1Cl [Compound 449]
≤ 10%: all assays above

O=C(NC1CC1)c1cccc(Cl)c1NC(=O)c1cc(C(F)(F)F)nn1-c1ncccc1Cl [Compound 453]
≤ 10%: all assays above

Cc1cc(Br)cc(C(=O)NCC#N)c1NC(=O)c1cc(Br)nn1-c1ncccc1Cl [Compound 454]
≤ 10%: all assays above

CNC(=O)c1cc(Cl)cc(Cl)c1NC(=O)c1cc(C(F)(F)F)nn1-c1ccccc1Cl [Compound 456]
≤ 10%: all assays above

CCNC(=O)c1cc(Cl)cc(Cl)c1NC(=O)c1cc(C(F)(F)F)nn1-c1ccccc1Cl [Compound 457]
≤ 10%: all assays above

CCNC(=O)c1cccc(C)c1NC(=O)c1cc(Cl)nn1-c1ncccc1Cl [Compound 468]
≤ 10%: all assays above

CNC(=O)c1cccc(C)c1NC(=O)c1cc(Cl)nn1-c1ncccc1Cl [Compound 469]
≤ 10%: all assays above

C#CCNC(=O)c1cc(Br)cc(Br)c1NC(=O)c1cc(Cl)nn1-c1ncccc1Cl [Compound 470]
≤ 10%: all assays above

C#CCNC(=O)c1cc(Cl)cc(C)c1NC(=O)c1cc(Cl)nn1-c1ncccc1Cl [Compound 471]
≤ 10%: all assays above

Cc1cc(Cl)cc(C(N)=O)c1NC(=O)c1cc(Cl)nn1-c1ncccc1Cl [Compound 472]
≤ 10%: all assays above

NC(=O)c1cc(Cl)cc(Cl)c1NC(=O)c1cc(Cl)nn1-c1ncccc1Cl [Compound 473]
≤ 10%: all assays above

C#CCNC(=O)c1cc(Cl)cc(Cl)c1NC(=O)c1cc(Cl)nn1-c1ncccc1Cl [Compound 474]
≤ 10%: all assays above

Cc1cccc(C(N)=O)c1NC(=O)c1cc(Cl)nn1-c1ncccc1Cl [Compound 475]
≤ 10%: all assays above

Cc1cc(I)cc(C(N)=O)c1NC(=O)c1cc(C(F)(F)F)nn1-c1ncccc1Cl [Compound 476]
≤ 10%: all assays above

Cc1cc(Cl)cc(C(=O)NCC#N)c1NC(=O)c1cc(Br)nn1-c1ncccc1Cl [Compound 477]
≤ 10%: all assays above

C#CCNC(=O)c1cc(Br)cc(C)c1NC(=O)c1cc(Cl)nn1-c1ncccc1Cl [Compound 478]
≤ 10%: all assays above

Cc1cc(Br)cc(C(N)=O)c1NC(=O)c1cc(Cl)nn1-c1ncccc1Cl [Compound 479]
≤ 10%: all assays above

CNC(=O)c1cc(Cl)cc(C)c1NC(=O)c1cc(C(F)(F)F)nn1-c1ncccc1C [Compound 482]
≤ 10%: all assays above

C#CCNC(=O)c1cc(Cl)cc(C)c1NC(=O)c1cc(C(F)(F)F)nn1-c1ncccc1Cl [Compound 486]
≤ 10%: all assays above

COC(=O)c1cc(C)c(NC(=O)c2cc(C(F)(F)F)nn2-c2ncccc2Cl)c(C(=O)NC(C)C)c1 [Compound 488]
≤ 10%: all assays above

CC(C)NC(=O)c1cc(Br)cc(Br)c1NC(=O)c1cc(C(F)(F)F)nn1-c1ncccc1Cl [Compound 501]
≤ 10%: all assays above

CC(C)(C)NC(=O)c1cc(Br)cc(Br)c1NC(=O)c1cc(C(F)(F)F)nn1-c1ncccc1Cl [Compound 502]
≤ 10%: all assays above

CNC(=O)c1cc(Br)cc(Br)c1NC(=O)c1cc(C(F)(F)F)nn1-c1ncccc1Cl [Compound 506]
≤ 10%: all assays above

CCNC(=O)c1cc(Br)cc(Br)c1NC(=O)c1cc(C(F)(F)F)nn1-c1ncccc1Cl [Compound 512]
≤ 10%: all assays above

CC(C)(C)NC(=O)c1cc(Cl)cc(Cl)c1NC(=O)c1cc(C(F)(F)F)nn1-c1ncccc1Cl [Compound 514]
≤ 10%: all assays above

Cc1cc(Br)cc(C(=O)NC(C)(C)C)c1NC(=O)c1cc(C(F)(F)F)nn1-c1ncccc1Cl [Compound 517]
≤ 10%: all assays above

Cc1cc(C(F)(F)F)cc(C(=O)NC(C)C)c1NC(=O)c1cc(C(F)(F)F)nn1-c1ncccc1Cl [Compound 521]
≤ 10%: all assays above

CCNC(=O)c1cc(C(F)(F)F)cc(C)c1NC(=O)c1cc(C(F)(F)F)nn1-c1ncccc1Cl [Compound 522]
≤ 10%: all assays above

Cc1cc(I)cc(C(=O)NC(C)C)c1NC(=O)c1cc(C(F)(F)F)nn1-c1ncccc1Cl [Compound 523]
≤ 10%: all assays above

Cc1cc(C(F)(F)F)cc(C(=O)NC(C)(C)C)c1NC(=O)c1cc(C(F)(F)F)nn1-c1ncccc1Cl [Compound 524]
≤ 10%: all assays above
